Results are given in words; binding and its absence hold for the method and conditions named. In cells and extracts the contact can be indirect. Some binding calls cover weakened binding; strength is not graded here. Tags and fused reporters may be left off the sequences shown.
Legend:
[1] = target: mouse Celsr3 (Celsr3-Flag) (mouse) (UniProt Q91ZI0); test: co-IP (IP: HA, blot Flag), quantified; Celsr3-Flag and Frizzled3-HA in cell a, with or without Flag-Vangl2 in cell b, with or without Aβ oligomer
[2] = target: mouse Celsr3 (Celsr3-Flag) (mouse) (UniProt Q91ZI0); test: co-IP of Frizzled3 with wild type Celsr3 expressed in the same HEK293T cells (reference of the deletion constructs)
[3] = target: mouse Celsr3 (Celsr3-Flag) (mouse) (UniProt Q91ZI0); test: co-IP of the intercellular complex (IP: HA, blot Flag); mixed HEK293T cultures, Frizzled3-HA and untagged Celsr3 in cell a, Celsr3-flag with or without Flag-Vangl2 in cell b; the pull-down runs through the untagged Celsr3 of cell a
[4] = target: mouse Celsr3 (Celsr3-Flag) (mouse) (UniProt Q91ZI0); test: co-IP (IP: HA, blot Flag), quantified; Frizzled3-HA and Celsr3-flag in the same HEK293T cell, with or without Aβ oligomer
[5] = target: mouse Celsr3 (Celsr3-Flag) (mouse) (UniProt Q91ZI0); test: co-IP of the intercellular complex (IP: HA, blot Flag); untagged Celsr3 and Frizzled3-HA in cell a, Celsr3-flag in cell b, with or without Aβ oligomer
[6] = target: mouse Celsr3 (Celsr3-Flag) (mouse) (UniProt Q91ZI0); test: co-IP (IP: HA, blot Flag); mixed HEK293T cultures, Frizzled3-HA and Celsr3-Flag in cell a, with or without untagged Celsr3 in cell b
[7] = target: mouse Celsr3 (Celsr3-Flag) (mouse) (UniProt Q91ZI0); test: co-IP of the intercellular complex (IP: HA, blot Flag), quantified; untagged Celsr3 and Frizzled3-HA in cell a, Celsr3-flag in cell b, with or without Aβ oligomer
[8] = target: mouse Celsr3 (Celsr3-Flag) (mouse) (UniProt Q91ZI0); test: co-IP (IP: HA, blot Flag), quantified; mixed HEK293T cultures, Frizzled3-HA and Celsr3-Flag in cell a, with or without Flag-Vangl2 in cell b
[9] = target: mouse Celsr3 (Celsr3-Flag) (mouse) (UniProt Q91ZI0); test: co-IP, legend of FIG. 9A
[10] = target: mouse Celsr3 (Celsr3-Flag) (mouse) (UniProt Q91ZI0); test: co-IP (IP: HA, blot Flag); Frizzled3-HA and Celsr3-flag in the same HEK293T cell, with or without Aβ oligomer
[11] = target: mouse Celsr3 (Celsr3-Flag) (mouse) (UniProt Q91ZI0); test: co-IP (IP: HA, blot Flag), quantified; mixed HEK293T cultures, Frizzled3-HA and Celsr3-Flag in cell a, with or without untagged Celsr3 in cell b
[12] = target: mouse Celsr3 (Celsr3-Flag) (mouse) (UniProt Q91ZI0); test: co-IP (IP: HA, blot Flag); mixed HEK293T cultures, Celsr3-Flag and Frizzled3-HA in cell a, with or without Flag-Vangl2 in cell b, with or without Aβ oligomer
[13] = target: mouse Celsr3 (Celsr3-Flag) (mouse) (UniProt Q91ZI0); test: co-IP of the intercellular complex (IP: HA, blot Flag), quantified; Frizzled3-HA and untagged Celsr3 in cell a, Celsr3-flag with or without Flag-Vangl2 in cell b

The chains behind the UniProt entries cited, without tags or fusion partners. Residues count along the entry.
UniProt Q91ZI0, residues 32-3301: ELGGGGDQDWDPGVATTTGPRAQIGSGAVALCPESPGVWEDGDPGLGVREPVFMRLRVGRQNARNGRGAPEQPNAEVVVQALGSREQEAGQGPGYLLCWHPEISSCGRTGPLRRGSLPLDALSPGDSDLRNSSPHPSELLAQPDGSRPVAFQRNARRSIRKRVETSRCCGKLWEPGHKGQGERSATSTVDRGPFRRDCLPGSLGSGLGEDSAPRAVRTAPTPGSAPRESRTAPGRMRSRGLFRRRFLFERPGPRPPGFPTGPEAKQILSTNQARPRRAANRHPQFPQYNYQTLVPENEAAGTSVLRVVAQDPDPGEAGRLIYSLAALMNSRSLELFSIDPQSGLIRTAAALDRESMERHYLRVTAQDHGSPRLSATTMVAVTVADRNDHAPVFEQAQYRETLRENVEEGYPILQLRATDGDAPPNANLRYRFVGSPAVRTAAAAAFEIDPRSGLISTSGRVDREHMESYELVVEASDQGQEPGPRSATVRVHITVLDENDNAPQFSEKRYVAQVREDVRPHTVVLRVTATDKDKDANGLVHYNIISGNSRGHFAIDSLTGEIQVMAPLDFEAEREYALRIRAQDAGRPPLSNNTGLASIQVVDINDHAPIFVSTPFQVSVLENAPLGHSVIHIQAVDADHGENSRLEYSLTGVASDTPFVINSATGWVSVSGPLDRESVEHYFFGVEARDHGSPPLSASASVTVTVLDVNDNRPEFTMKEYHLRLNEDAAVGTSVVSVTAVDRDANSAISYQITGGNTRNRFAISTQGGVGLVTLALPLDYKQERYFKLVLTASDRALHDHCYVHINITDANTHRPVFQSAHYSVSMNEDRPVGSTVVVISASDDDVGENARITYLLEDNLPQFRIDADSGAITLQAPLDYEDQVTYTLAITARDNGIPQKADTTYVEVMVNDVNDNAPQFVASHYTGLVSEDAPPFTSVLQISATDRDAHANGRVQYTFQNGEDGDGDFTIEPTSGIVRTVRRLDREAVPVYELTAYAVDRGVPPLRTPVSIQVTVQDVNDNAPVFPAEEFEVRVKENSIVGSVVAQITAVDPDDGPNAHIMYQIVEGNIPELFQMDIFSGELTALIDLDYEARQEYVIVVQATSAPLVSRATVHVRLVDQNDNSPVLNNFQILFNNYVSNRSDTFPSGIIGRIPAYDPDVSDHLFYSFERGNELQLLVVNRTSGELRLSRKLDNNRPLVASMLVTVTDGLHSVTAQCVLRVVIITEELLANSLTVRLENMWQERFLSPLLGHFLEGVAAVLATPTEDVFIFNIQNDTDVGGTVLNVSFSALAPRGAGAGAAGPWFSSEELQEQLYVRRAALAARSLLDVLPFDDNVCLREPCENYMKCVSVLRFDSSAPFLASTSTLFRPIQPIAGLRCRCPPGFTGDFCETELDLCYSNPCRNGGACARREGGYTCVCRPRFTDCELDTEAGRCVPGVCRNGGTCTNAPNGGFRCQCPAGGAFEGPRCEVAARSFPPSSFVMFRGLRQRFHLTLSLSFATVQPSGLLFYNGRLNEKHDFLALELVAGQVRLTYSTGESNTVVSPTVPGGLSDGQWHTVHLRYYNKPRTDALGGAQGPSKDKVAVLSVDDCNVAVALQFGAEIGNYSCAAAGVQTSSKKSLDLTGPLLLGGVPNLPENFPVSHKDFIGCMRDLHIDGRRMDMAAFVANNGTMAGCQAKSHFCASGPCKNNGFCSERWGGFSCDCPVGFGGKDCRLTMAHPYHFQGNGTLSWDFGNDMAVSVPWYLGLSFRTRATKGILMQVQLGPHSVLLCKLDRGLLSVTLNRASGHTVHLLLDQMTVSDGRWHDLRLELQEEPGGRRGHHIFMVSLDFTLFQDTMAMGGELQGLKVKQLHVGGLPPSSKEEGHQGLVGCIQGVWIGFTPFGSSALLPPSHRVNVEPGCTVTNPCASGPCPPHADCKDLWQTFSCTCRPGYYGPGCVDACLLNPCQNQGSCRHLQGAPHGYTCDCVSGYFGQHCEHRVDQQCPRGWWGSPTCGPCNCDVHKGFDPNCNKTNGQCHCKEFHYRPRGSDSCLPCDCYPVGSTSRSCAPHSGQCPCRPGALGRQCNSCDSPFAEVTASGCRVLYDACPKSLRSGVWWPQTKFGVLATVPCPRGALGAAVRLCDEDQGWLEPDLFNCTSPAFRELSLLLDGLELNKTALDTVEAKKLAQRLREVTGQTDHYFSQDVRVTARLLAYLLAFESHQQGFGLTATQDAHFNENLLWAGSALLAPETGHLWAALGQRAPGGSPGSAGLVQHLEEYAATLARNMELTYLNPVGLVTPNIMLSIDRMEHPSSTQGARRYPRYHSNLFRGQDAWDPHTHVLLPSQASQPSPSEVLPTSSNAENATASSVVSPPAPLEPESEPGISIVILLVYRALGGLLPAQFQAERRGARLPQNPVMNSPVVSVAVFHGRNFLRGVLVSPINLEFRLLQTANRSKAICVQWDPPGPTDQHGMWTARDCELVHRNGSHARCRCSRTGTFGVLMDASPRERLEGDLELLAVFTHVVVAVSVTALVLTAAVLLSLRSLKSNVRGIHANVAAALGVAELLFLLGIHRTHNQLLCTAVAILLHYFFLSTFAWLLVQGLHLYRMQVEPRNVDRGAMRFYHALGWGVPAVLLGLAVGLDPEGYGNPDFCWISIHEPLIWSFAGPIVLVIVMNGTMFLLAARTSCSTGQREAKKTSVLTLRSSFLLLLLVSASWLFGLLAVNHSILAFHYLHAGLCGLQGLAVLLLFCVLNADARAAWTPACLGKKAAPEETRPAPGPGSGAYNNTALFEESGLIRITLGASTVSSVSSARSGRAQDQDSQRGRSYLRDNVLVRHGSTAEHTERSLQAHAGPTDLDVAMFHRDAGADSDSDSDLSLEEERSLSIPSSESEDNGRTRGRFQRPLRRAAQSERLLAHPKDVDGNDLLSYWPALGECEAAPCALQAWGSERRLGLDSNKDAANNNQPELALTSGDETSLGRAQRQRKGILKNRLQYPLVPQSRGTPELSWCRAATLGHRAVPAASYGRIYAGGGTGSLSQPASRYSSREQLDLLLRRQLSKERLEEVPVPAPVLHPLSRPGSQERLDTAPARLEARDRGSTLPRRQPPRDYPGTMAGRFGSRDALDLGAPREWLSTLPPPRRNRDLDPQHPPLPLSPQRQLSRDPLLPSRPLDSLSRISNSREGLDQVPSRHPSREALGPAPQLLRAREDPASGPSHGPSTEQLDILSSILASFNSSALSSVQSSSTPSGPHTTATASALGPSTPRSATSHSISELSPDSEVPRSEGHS

binding [1]: binds
binding [2]: binds
binding [3]: binds
binding [4]: binds
binding [5]: binds
binding [6]: binds
binding [7]: binds
binding [8]: binds
binding [9]: binds
binding [10]: binds
binding [11]: binds
binding [12]: binds
binding [13]: binds
B1: Frizzled3-HA (receptor, not shown: small tags and cut ends)
chain: HSLFSCEPITLRMCQDLPYNTTFMPNLLNHYDQQTAALAMEPFHPMVNLDCSRDFRPFLCALYAPICMEYGRVTLPCRRLCQRAYSECSKLMEMFGVPWPEDMECSRFPDCDEPYPRLVDLNLVGDPTEGAPVAVQRDYGFWCPRELKIDPDLGYSFLHVRDCSPPCPNMYFRREELSFARYFIGLISIICLSATLFTFLTFLIDVTRFRYPERPIIFYAVCYMMVSLIFFIGFLLEDRVACNASSPAQYKASTVTQGSHNKACTMLFMVLYFFTMAGSVWWVILTITWFLAAVPKWGSEAIEKKALLFHASAWGIPGTLTIILLAMNKIEGDNISGVCFVGLYDVDALRYFVLAPLCLYVVVGVSLLLAGIISLNRVRIEIPLEKENQDKLVKFMIRIGVFSILYLVPLLVVIGCYFYEQAYRGIWETTWIQERCREYHIPCPYQVTQMSRPDLILFLMKYLMALIVGIPSIFWVGSKKTCFEWASFFHGRRKKEIVNESRQVLQEPDFAQSLLRDPNTPIIRKSRGTSTQGTSTHASSTQLAMVDDQRSKAGSVHSKVSSYHGSLHRSRDGRYTPCSYRGMEERLPHGSMSRLTDHSRHSSSHRLNEQSRHSSIRDLSNNPMTHITHGTSMNRVIEEDGTSA

— US20220380454A1
